# Source: the supplement of paper PMC12823440, “Inhibitors supercharge kinase turnover through native proteolytic circuits” (Nature, 2025)
# Amino acid sequences for entries named in this document (tags omitted). A change or cut given only in a name is not applied to a line headed by its entry.
# UniProt P00519, whole entry: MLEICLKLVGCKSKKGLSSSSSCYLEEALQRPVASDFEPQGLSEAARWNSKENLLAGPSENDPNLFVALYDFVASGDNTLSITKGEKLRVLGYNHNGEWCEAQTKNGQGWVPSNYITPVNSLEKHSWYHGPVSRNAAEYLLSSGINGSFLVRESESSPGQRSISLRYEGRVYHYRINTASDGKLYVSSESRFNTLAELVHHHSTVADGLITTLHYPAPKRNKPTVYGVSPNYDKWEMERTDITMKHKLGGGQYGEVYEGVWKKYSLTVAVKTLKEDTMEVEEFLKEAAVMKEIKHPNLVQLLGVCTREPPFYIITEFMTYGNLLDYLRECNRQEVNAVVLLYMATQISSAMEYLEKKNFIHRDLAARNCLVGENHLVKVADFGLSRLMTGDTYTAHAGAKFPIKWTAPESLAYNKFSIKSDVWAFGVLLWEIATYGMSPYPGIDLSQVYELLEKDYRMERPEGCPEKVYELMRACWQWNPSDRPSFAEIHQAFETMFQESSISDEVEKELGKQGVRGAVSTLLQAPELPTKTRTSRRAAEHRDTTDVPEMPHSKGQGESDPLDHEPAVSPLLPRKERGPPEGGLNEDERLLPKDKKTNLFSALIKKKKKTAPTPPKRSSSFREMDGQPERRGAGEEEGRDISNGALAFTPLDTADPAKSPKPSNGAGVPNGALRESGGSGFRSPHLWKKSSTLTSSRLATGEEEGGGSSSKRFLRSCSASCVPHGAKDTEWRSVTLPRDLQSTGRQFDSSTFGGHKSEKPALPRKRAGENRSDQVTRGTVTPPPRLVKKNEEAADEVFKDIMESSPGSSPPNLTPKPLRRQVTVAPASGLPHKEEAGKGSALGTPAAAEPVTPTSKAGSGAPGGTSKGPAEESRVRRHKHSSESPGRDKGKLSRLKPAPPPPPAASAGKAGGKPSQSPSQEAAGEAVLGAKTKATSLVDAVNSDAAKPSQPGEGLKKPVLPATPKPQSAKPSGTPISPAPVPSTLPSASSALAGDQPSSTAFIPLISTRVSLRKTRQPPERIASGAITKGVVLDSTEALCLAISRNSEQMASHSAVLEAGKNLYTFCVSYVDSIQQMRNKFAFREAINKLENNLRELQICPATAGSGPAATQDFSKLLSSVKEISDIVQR
# UniProt P31749: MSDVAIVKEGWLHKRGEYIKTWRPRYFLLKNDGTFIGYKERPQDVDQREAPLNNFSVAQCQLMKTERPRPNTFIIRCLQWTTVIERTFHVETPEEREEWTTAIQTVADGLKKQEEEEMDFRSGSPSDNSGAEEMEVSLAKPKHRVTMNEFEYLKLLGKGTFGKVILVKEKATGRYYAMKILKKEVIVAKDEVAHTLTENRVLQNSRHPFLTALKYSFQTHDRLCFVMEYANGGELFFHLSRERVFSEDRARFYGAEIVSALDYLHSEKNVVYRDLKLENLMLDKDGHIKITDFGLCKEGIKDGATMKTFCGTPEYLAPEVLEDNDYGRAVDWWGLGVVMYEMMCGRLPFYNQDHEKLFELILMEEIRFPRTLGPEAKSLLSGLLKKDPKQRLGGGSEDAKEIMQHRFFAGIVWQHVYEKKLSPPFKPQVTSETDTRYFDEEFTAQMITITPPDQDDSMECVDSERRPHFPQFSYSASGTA
# UniProt P10398: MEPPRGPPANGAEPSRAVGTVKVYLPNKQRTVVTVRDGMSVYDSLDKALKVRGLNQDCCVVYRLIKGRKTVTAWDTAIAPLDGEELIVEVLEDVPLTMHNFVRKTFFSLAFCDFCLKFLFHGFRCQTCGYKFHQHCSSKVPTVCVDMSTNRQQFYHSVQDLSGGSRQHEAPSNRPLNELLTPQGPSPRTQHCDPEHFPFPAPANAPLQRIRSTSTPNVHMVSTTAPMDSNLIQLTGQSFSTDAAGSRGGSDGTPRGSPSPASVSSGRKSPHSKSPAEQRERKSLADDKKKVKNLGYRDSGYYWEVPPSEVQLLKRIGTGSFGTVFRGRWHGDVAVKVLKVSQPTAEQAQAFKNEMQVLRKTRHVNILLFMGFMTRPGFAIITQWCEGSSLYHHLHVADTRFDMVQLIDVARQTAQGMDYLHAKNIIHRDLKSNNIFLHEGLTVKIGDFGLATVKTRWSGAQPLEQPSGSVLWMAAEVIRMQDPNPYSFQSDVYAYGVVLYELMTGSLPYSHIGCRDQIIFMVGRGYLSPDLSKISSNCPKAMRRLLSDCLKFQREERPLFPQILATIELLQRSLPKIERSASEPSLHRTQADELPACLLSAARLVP
# UniProt O14965: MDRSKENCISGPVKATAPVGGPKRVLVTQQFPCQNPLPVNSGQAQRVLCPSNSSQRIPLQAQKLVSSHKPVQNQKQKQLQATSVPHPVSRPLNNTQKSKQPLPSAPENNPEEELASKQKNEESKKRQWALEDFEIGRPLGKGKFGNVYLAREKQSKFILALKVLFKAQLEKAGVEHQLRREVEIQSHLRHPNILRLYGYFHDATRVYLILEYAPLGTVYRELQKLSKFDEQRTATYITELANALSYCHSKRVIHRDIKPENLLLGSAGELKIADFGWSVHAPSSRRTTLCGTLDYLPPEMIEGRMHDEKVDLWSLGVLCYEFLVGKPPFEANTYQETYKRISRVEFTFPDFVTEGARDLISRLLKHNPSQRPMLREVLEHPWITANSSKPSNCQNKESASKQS
# UniProt P51451: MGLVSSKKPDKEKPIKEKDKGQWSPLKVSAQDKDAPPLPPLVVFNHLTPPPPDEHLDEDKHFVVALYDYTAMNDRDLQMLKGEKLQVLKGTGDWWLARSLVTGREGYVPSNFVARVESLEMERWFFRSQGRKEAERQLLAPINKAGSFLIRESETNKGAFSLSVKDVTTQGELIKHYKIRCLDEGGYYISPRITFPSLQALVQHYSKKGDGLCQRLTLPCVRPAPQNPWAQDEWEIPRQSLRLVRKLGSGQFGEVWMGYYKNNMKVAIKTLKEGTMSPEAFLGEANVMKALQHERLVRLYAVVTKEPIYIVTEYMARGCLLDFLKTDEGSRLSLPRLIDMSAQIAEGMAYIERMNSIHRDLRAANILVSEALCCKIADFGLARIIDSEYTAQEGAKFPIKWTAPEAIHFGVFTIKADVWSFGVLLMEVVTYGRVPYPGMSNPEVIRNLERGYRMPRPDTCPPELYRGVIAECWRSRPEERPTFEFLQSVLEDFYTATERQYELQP
# UniProt P51813: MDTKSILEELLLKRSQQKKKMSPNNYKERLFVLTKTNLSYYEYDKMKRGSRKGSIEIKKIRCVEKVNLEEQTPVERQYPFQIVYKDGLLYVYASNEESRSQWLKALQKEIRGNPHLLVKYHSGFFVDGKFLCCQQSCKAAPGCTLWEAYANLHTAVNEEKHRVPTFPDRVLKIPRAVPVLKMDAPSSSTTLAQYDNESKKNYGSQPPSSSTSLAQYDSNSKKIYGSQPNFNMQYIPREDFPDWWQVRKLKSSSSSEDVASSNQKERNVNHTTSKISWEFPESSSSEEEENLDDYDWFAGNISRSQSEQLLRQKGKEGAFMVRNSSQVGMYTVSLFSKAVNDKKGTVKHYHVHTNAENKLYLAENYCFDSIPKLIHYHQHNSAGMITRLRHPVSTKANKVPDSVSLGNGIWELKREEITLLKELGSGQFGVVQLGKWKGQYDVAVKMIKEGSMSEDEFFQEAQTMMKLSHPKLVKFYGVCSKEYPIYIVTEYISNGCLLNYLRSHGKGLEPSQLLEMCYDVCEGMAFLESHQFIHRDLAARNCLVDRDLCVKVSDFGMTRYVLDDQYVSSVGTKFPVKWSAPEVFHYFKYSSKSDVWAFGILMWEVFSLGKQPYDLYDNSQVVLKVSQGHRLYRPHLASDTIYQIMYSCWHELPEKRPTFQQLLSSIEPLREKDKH
# UniProt Q9UQM7, whole entry: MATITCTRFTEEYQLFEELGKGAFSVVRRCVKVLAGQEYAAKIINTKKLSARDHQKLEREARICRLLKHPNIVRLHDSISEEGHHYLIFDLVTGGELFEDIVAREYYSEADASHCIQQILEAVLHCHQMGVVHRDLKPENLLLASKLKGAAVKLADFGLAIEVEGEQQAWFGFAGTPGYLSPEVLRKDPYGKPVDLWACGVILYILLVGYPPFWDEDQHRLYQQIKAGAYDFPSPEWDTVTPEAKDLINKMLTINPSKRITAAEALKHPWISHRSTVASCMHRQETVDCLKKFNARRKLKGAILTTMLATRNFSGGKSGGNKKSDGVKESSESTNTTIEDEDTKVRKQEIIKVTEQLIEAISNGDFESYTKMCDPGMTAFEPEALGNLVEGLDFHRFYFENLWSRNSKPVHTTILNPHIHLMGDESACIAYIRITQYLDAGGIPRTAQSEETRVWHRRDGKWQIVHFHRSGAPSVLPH
# UniProt Q13555: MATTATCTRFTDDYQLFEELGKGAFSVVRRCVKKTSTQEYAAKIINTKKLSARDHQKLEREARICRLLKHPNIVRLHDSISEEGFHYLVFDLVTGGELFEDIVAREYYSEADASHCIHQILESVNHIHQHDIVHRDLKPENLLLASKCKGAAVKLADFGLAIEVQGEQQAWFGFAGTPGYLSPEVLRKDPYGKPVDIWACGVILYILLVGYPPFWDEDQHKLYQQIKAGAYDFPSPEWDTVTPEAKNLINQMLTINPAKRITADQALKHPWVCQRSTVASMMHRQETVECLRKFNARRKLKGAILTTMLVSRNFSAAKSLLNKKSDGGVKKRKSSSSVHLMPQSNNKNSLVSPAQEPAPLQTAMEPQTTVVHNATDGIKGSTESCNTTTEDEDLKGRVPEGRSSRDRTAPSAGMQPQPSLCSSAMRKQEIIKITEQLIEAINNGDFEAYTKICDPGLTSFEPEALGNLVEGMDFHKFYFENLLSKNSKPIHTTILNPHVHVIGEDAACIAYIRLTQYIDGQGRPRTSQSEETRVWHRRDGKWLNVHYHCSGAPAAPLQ
# UniProt Q15131: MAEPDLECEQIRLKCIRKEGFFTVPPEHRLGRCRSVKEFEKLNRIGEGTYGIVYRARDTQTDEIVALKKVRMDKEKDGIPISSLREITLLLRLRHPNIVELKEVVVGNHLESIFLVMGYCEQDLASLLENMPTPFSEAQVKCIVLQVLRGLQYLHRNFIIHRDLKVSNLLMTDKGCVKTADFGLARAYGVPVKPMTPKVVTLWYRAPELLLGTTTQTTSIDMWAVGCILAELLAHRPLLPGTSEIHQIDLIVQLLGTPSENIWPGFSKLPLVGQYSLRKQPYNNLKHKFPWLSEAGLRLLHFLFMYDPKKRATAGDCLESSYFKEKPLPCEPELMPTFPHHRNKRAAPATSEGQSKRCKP
# UniProt Q00526: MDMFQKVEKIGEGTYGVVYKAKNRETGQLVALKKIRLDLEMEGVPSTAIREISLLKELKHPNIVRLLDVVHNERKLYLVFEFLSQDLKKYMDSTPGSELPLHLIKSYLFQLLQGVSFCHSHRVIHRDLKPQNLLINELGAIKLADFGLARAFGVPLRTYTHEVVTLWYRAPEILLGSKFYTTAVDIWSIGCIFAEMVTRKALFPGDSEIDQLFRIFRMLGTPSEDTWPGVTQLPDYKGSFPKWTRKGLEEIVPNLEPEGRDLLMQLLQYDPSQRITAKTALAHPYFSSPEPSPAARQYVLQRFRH
# UniProt P11802: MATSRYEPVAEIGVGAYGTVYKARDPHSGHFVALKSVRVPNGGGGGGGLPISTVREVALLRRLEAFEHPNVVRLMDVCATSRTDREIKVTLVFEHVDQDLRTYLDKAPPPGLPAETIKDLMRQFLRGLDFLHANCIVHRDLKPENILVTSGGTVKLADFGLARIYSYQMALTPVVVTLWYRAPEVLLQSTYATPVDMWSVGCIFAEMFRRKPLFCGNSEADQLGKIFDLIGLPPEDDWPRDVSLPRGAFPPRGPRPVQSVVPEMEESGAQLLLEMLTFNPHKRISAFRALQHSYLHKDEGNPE
# UniProt Q00535, whole entry, looked up: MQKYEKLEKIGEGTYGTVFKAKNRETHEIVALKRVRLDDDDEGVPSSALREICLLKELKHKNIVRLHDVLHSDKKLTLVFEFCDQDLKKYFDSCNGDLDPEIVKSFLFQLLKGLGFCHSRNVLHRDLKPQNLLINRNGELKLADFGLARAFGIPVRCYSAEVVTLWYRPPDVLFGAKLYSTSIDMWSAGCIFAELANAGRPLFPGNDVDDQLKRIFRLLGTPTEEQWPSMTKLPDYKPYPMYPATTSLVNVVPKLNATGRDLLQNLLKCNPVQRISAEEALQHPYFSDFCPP
# UniProt Q00534, whole entry: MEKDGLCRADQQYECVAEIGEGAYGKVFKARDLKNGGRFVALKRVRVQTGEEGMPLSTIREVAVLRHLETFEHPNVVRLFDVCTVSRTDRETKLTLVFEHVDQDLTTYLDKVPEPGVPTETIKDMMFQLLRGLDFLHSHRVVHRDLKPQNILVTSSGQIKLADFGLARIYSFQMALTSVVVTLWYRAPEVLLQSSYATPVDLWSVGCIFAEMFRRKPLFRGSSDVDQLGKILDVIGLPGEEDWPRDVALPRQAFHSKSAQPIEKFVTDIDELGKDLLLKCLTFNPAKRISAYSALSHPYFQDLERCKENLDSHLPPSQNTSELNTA
# The other results are listed elsewhere or left out. Hit calls seldom repeat between salt and free forms of one compound.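 In K562 cells expressing nanoluciferase-fused kinases, luminescence was recorded at 4 h intervals between 2 and 18 h, normalized as percent of control with DMSO at 100% and a positive control at 0%. A significant (2 sigma) signal drop marks a time point as decreased. The authors' rule for a hit is not shown and takes in more than the number of time points.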
# How the values were obtained:
# Test in all cases: kinase-Nluc reporter destabilization hit call (1 = scored as downregulated) (binary); higher = compound decreases kinase abundance
# Settings in all cases: K562; 2-18 h
# ABL1 = ABL1 (UniProt P00519)
# AKT1 = AKT1 (UniProt P31749)
# ALK = ALK (UniProt Q9UM73)
# ARAF = ARAF (UniProt P10398)
# AURKA = AURKA (UniProt O14965)
# AURKB = AURKB (UniProt Q96GD4)
# AURKC = AURKC (UniProt Q9UQB9)
# BLK = BLK (UniProt P51451)
# BMX = BMX (UniProt P51813)
# BRAF = BRAF (UniProt P15056)
# BRAF_V600E = test system: BRAF_V600E
# BTK = BTK (UniProt Q06187)
# CAMK2A = CAMK2A (UniProt Q9UQM7)
# CAMK2G = CAMK2G (UniProt Q13555)
# CDK10 = CDK10 (UniProt Q15131)
# CDK2 = CDK2 (UniProt P24941)
# CDK3 = CDK3 (UniProt Q00526)
# CDK4 = CDK4 (UniProt P11802)
# CDK5 = CDK5 (UniProt Q00535)
# CDK6 = CDK6 (UniProt Q00534)
SMILES,kinase-Nluc reporter destabilization hit call (ABL1),kinase-Nluc reporter destabilization hit call (AKT1),kinase-Nluc reporter destabilization hit call (ALK),kinase-Nluc reporter destabilization hit call (ARAF),kinase-Nluc reporter destabilization hit call (AURKA),kinase-Nluc reporter destabilization hit call (AURKB),kinase-Nluc reporter destabilization hit call (AURKC),kinase-Nluc reporter destabilization hit call (BLK),kinase-Nluc reporter destabilization hit call (BMX),kinase-Nluc reporter destabilization hit call (BRAF),kinase-Nluc reporter destabilization hit call (BRAF_V600E),kinase-Nluc reporter destabilization hit call (BTK),kinase-Nluc reporter destabilization hit call (CAMK2A),kinase-Nluc reporter destabilization hit call (CAMK2G),kinase-Nluc reporter destabilization hit call (CDK10),kinase-Nluc reporter destabilization hit call (CDK2),kinase-Nluc reporter destabilization hit call (CDK3),kinase-Nluc reporter destabilization hit call (CDK4),kinase-Nluc reporter destabilization hit call (CDK5),kinase-Nluc reporter destabilization hit call (CDK6)
CN(CC(=O)N(Cc1ccc(C2CCCCC2)cc1)c1ccc(C(=O)NO)cc1)S(=O)(=O)c1c(F)c(F)c(F)c(F)c1F (2.5 µM),inactive: 0,inactive: 0,inactive: 0,inactive: 0,inactive: 0,inactive: 0,inactive: 0,inactive: 0,inactive: 0,inactive: 0,inactive: 0,inactive: 0,inactive: 0,inactive: 0,inactive: 0,inactive: 0,inactive: 0,inactive: 0,inactive: 0,inactive: 0
COc1ccc(-c2ccc3c(N4CCOCC4)nc(N4C[C@@H](C)O[C@@H](C)C4)nc3n2)cc1CO (2.5 µM),inactive: 0,inactive: 0,inactive: 0,inactive: 0,inactive: 0,inactive: 0,inactive: 0,inactive: 0,inactive: 0,inactive: 0,inactive: 0,inactive: 0,inactive: 0,inactive: 0,inactive: 0,inactive: 0,inactive: 0,inactive: 0,inactive: 0,inactive: 0
O=C([O-])c1cc2ccccc2c(Cc2c(O)c(C(=O)[O-])cc3ccccc23)c1O.[Na+].[Na+] [Pamoic acid (disodium)] (10 µM),inactive: 0,inactive: 0,inactive: 0,inactive: 0,inactive: 0,inactive: 0,inactive: 0,inactive: 0,inactive: 0,inactive: 0,inactive: 0,inactive: 0,inactive: 0,inactive: 0,inactive: 0,inactive: 0,inactive: 0,inactive: 0,inactive: 0,inactive: 0
Nc1nc(F)nc2c1ncn2[C@@H]1O[C@H](CO)[C@@H](O)[C@@H]1O [Fludarabine] (10 µM),inactive: 0,inactive: 0,inactive: 0,inactive: 0,inactive: 0,inactive: 0,inactive: 0,inactive: 0,inactive: 0,inactive: 0,inactive: 0,inactive: 0,inactive: 0,inactive: 0,inactive: 0,inactive: 0,inactive: 0,inactive: 0,inactive: 0,inactive: 0
Cc1c(-c2c(F)cc(C(N)=O)c3[nH]c4c(c23)CC[C@H](C(C)(C)O)C4)cccc1-n1c(=O)c2cccc(F)c2n(C)c1=O (2.5 µM),inactive: 0,inactive: 0,inactive: 0,inactive: 0,inactive: 0,inactive: 0,inactive: 0,inactive: 0,inactive: 0,inactive: 0,inactive: 0,inactive: 0,inactive: 0,inactive: 0,inactive: 0,inactive: 0,inactive: 0,inactive: 0,inactive: 0,inactive: 0
C=C1C(=O)O[C@H]2C[C@H](C)C(/C=C/C(C)=O)=CC[C@H]12 [Xanthatin] (2.5 µM),inactive: 0,inactive: 0,inactive: 0,inactive: 0,inactive: 0,inactive: 0,inactive: 0,inactive: 0,inactive: 0,inactive: 0,inactive: 0,inactive: 0,inactive: 0,inactive: 0,inactive: 0,inactive: 0,inactive: 0,inactive: 0,inactive: 0,inactive: 0
COc1ncc(Cl)cc1S(=O)(=O)Nc1ccc(F)c(C#Cc2cnc(N)nc2)c1F (2.5 µM),inactive: 0,inactive: 0,inactive: 0,inactive: 0,inactive: 0,inactive: 0,inactive: 0,inactive: 0,active: 1,inactive: 0,inactive: 0,inactive: 0,inactive: 0,inactive: 0,inactive: 0,inactive: 0,inactive: 0,inactive: 0,inactive: 0,inactive: 0
CC1=C(C(=O)O)N2C(=O)[C@@H](NC(=O)[C@H](N)C3=CCC=CC3)[C@H]2SC1 [Cephradine] (10 µM),inactive: 0,inactive: 0,inactive: 0,inactive: 0,inactive: 0,inactive: 0,inactive: 0,inactive: 0,inactive: 0,inactive: 0,inactive: 0,inactive: 0,inactive: 0,inactive: 0,inactive: 0,inactive: 0,inactive: 0,inactive: 0,inactive: 0,inactive: 0
S=C(SSC(=S)N1CCOCC1)N1CCOCC1 (10 µM),inactive: 0,inactive: 0,inactive: 0,inactive: 0,inactive: 0,inactive: 0,inactive: 0,inactive: 0,inactive: 0,inactive: 0,inactive: 0,inactive: 0,inactive: 0,inactive: 0,inactive: 0,inactive: 0,inactive: 0,inactive: 0,inactive: 0,inactive: 0
O=C1NC(=O)/C(=C\c2cccc(C(F)(F)F)c2)S1 (2.5 µM),inactive: 0,inactive: 0,inactive: 0,inactive: 0,inactive: 0,inactive: 0,inactive: 0,inactive: 0,inactive: 0,inactive: 0,inactive: 0,inactive: 0,inactive: 0,inactive: 0,inactive: 0,inactive: 0,inactive: 0,inactive: 0,inactive: 0,inactive: 0
CC(C)(C)c1cc(O)ccc1O (10 µM),inactive: 0,inactive: 0,inactive: 0,inactive: 0,inactive: 0,inactive: 0,inactive: 0,inactive: 0,inactive: 0,inactive: 0,inactive: 0,inactive: 0,inactive: 0,inactive: 0,inactive: 0,inactive: 0,inactive: 0,inactive: 0,inactive: 0,inactive: 0
CNC(=O)c1c(F)cccc1Nc1nc(Nc2cc3c(cc2OC)CCN3C(=O)CN(C)C)nc2[nH]ccc12 (10 µM),inactive: 0,inactive: 0,inactive: 0,inactive: 0,inactive: 0,inactive: 0,inactive: 0,active: 1,inactive: 0,inactive: 0,inactive: 0,inactive: 0,inactive: 0,inactive: 0,inactive: 0,inactive: 0,inactive: 0,inactive: 0,inactive: 0,inactive: 0
CNC(=O)c1ccc(C)c(-n2c(C)cc(OCc3ccc(F)cc3F)c(Br)c2=O)c1 (10 µM),inactive: 0,inactive: 0,inactive: 0,inactive: 0,inactive: 0,inactive: 0,inactive: 0,inactive: 0,inactive: 0,inactive: 0,inactive: 0,inactive: 0,inactive: 0,inactive: 0,inactive: 0,inactive: 0,inactive: 0,inactive: 0,inactive: 0,inactive: 0
NC(=O)c1ccc(-c2nc(-c3ccc4c(c3)OCCO4)c(-c3ccccn3)[nH]2)cc1 (10 µM),inactive: 0,inactive: 0,inactive: 0,inactive: 0,inactive: 0,inactive: 0,inactive: 0,inactive: 0,inactive: 0,inactive: 0,inactive: 0,inactive: 0,inactive: 0,inactive: 0,inactive: 0,inactive: 0,inactive: 0,inactive: 0,inactive: 0,inactive: 0
CCN1CCN(Cc2ccc(-c3cc4c(N[C@H](C)c5ccccc5)ncnc4[nH]3)cc2)CC1 (2.5 µM),inactive: 0,inactive: 0,inactive: 0,inactive: 0,inactive: 0,inactive: 0,inactive: 0,inactive: 0,inactive: 0,inactive: 0,inactive: 0,inactive: 0,inactive: 0,inactive: 0,inactive: 0,inactive: 0,inactive: 0,inactive: 0,inactive: 0,inactive: 0
COc1cc(/C=C/C(=O)NCC(O)c2ccc(O)cc2)ccc1O (stereo not given) [N-Feruloyloctopamine] (2.5 µM),inactive: 0,inactive: 0,inactive: 0,inactive: 0,inactive: 0,inactive: 0,inactive: 0,inactive: 0,inactive: 0,inactive: 0,inactive: 0,inactive: 0,inactive: 0,inactive: 0,inactive: 0,inactive: 0,inactive: 0,inactive: 0,inactive: 0,inactive: 0
Cc1nc(-c2cn3c(n2)-c2ccc(-c4cnn(C(C)(C)C(N)=O)c4)cc2OCC3)n(C(C)C)n1 [Taselisib] (10 µM),inactive: 0,inactive: 0,inactive: 0,inactive: 0,inactive: 0,inactive: 0,inactive: 0,inactive: 0,inactive: 0,inactive: 0,inactive: 0,inactive: 0,inactive: 0,inactive: 0,inactive: 0,inactive: 0,inactive: 0,inactive: 0,inactive: 0,inactive: 0
CN(C)CCSSCCNC(=O)C1CCN(C(=O)CSc2ccc(Cl)cc2)CC1 (10 µM),inactive: 0,inactive: 0,inactive: 0,inactive: 0,inactive: 0,inactive: 0,inactive: 0,inactive: 0,inactive: 0,inactive: 0,inactive: 0,inactive: 0,inactive: 0,inactive: 0,inactive: 0,inactive: 0,inactive: 0,inactive: 0,inactive: 0,inactive: 0

# Pulled one by one from the list above:
SMILES,kinase-Nluc reporter destabilization hit call (ABL1),kinase-Nluc reporter destabilization hit call (AKT1),kinase-Nluc reporter destabilization hit call (ALK),kinase-Nluc reporter destabilization hit call (ARAF),kinase-Nluc reporter destabilization hit call (AURKA),kinase-Nluc reporter destabilization hit call (AURKB),kinase-Nluc reporter destabilization hit call (AURKC),kinase-Nluc reporter destabilization hit call (BLK),kinase-Nluc reporter destabilization hit call (BMX),kinase-Nluc reporter destabilization hit call (BRAF),kinase-Nluc reporter destabilization hit call (BRAF_V600E),kinase-Nluc reporter destabilization hit call (BTK),kinase-Nluc reporter destabilization hit call (CAMK2A),kinase-Nluc reporter destabilization hit call (CAMK2G),kinase-Nluc reporter destabilization hit call (CDK10),kinase-Nluc reporter destabilization hit call (CDK2),kinase-Nluc reporter destabilization hit call (CDK3),kinase-Nluc reporter destabilization hit call (CDK4),kinase-Nluc reporter destabilization hit call (CDK5),kinase-Nluc reporter destabilization hit call (CDK6)
O=C1NC(=O)/C(=C\c2cccc(C(F)(F)F)c2)S1 (2.5 µM),inactive: 0,inactive: 0,inactive: 0,inactive: 0,inactive: 0,inactive: 0,inactive: 0,inactive: 0,inactive: 0,inactive: 0,inactive: 0,inactive: 0,inactive: 0,inactive: 0,inactive: 0,inactive: 0,inactive: 0,inactive: 0,inactive: 0,inactive: 0
COc1cc(/C=C/C(=O)NCC(O)c2ccc(O)cc2)ccc1O (stereo not given) [N-Feruloyloctopamine] (2.5 µM),inactive: 0,inactive: 0,inactive: 0,inactive: 0,inactive: 0,inactive: 0,inactive: 0,inactive: 0,inactive: 0,inactive: 0,inactive: 0,inactive: 0,inactive: 0,inactive: 0,inactive: 0,inactive: 0,inactive: 0,inactive: 0,inactive: 0,inactive: 0
